Source: the supplement of paper PMC10849652
The other results are listed elsewhere or left out.

The chains behind the UniProt entries cited, without tags or fusion partners. Where a name states a change or a piece, a line headed by the entry shows the natural chain unless it says otherwise.
UniProt Q9NRK6: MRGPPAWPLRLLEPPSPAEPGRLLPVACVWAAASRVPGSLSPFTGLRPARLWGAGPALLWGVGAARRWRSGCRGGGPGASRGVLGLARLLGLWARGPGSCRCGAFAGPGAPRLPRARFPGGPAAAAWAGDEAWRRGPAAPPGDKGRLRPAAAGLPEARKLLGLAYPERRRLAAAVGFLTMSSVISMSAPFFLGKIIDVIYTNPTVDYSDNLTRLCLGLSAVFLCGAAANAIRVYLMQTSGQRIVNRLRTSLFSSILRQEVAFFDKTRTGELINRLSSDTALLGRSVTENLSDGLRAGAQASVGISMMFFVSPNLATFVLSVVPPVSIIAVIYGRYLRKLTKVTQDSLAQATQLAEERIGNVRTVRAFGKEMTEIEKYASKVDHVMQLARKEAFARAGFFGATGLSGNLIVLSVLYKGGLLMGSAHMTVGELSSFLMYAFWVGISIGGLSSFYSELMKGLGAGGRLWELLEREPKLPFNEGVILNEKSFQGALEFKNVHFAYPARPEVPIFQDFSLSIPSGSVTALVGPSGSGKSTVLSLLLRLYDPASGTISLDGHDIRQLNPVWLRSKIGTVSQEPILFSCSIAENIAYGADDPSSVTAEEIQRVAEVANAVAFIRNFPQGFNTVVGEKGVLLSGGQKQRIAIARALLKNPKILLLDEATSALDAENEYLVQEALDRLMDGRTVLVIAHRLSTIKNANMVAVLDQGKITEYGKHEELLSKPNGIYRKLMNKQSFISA
UniProt Q9NUJ1: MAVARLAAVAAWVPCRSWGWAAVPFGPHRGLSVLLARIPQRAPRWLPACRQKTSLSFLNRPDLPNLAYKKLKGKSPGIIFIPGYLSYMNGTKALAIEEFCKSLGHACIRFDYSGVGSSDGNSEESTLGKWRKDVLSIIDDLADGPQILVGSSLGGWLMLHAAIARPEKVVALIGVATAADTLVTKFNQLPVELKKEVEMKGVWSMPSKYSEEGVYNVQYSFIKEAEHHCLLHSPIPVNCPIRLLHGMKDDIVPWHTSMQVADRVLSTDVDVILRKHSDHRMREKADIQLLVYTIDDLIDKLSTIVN
UniProt Q96GS6: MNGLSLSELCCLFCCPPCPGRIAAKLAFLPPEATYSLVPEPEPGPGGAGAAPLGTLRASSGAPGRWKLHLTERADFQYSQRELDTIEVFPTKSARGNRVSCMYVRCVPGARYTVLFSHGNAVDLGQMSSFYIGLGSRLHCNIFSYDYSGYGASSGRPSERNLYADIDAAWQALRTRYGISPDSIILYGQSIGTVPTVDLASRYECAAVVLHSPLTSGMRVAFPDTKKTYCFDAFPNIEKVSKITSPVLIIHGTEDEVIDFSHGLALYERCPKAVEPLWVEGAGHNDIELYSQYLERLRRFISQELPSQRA
UniProt Q9ULW3: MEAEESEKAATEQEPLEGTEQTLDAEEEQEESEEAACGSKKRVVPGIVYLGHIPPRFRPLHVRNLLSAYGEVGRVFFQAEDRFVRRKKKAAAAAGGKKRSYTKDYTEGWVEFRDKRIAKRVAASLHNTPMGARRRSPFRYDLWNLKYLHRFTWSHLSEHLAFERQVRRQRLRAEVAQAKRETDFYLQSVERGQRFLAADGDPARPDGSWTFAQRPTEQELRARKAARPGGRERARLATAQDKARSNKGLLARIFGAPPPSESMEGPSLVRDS
UniProt P21399: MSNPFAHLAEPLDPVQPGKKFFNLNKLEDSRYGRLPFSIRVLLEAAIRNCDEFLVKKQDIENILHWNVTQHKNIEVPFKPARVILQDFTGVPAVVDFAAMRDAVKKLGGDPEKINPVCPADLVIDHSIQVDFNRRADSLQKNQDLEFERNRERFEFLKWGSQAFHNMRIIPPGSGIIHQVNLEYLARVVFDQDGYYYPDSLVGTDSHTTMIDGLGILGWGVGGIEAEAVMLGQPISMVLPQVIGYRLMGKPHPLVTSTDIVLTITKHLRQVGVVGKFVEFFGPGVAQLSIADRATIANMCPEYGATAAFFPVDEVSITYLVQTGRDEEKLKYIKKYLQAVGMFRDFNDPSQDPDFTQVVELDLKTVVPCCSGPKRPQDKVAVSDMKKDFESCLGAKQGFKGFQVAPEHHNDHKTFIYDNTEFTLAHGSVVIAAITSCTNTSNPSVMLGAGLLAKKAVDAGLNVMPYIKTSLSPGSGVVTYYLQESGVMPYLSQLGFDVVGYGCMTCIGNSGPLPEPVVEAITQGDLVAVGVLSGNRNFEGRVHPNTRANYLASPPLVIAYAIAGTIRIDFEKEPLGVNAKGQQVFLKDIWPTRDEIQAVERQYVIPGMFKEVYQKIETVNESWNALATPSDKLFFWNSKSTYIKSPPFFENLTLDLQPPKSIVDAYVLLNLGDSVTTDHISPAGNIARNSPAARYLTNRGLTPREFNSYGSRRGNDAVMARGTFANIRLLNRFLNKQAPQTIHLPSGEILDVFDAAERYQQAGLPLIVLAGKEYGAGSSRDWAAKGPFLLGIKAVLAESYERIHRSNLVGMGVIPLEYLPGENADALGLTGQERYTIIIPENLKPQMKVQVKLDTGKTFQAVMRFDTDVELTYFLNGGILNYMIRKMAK
UniProt P16219: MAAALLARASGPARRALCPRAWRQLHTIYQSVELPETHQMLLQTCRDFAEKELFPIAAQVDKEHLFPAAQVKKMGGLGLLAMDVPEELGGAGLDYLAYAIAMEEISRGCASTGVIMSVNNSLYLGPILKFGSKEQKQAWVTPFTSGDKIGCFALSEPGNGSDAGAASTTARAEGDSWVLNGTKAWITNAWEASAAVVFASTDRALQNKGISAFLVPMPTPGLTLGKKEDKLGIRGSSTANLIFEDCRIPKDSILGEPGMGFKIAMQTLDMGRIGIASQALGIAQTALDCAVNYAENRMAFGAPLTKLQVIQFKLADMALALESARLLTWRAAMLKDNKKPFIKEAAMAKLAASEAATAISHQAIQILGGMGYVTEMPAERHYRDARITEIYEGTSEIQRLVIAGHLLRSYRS
UniProt Q9BR61: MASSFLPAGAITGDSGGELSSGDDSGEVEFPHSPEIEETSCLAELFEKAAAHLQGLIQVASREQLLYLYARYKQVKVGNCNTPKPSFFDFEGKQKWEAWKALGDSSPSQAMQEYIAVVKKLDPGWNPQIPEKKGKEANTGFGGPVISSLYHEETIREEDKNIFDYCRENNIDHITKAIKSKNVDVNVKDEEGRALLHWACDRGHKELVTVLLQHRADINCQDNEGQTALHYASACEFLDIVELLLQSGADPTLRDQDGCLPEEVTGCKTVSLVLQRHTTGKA
UniProt Q8NE71: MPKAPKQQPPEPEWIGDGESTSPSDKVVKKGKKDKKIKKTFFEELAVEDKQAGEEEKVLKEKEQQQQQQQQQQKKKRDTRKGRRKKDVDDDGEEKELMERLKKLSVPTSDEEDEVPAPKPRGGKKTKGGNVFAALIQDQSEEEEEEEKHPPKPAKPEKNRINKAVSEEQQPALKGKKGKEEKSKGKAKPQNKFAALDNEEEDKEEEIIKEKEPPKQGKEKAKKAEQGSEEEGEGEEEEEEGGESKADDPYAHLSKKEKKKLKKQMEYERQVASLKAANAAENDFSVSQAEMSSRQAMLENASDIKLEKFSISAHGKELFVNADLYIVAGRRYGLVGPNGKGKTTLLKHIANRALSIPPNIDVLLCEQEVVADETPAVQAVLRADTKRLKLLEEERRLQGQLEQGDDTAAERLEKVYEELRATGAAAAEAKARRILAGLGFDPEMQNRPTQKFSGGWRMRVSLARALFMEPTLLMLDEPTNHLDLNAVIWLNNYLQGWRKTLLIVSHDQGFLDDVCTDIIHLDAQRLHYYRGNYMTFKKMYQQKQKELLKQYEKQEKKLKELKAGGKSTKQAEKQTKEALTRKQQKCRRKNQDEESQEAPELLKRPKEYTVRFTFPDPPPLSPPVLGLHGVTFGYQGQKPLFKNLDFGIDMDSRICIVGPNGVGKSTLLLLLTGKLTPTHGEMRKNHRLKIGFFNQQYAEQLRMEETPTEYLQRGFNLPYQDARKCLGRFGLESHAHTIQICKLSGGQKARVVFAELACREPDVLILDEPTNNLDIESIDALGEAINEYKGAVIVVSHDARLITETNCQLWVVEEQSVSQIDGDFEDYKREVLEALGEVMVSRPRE
UniProt O95870: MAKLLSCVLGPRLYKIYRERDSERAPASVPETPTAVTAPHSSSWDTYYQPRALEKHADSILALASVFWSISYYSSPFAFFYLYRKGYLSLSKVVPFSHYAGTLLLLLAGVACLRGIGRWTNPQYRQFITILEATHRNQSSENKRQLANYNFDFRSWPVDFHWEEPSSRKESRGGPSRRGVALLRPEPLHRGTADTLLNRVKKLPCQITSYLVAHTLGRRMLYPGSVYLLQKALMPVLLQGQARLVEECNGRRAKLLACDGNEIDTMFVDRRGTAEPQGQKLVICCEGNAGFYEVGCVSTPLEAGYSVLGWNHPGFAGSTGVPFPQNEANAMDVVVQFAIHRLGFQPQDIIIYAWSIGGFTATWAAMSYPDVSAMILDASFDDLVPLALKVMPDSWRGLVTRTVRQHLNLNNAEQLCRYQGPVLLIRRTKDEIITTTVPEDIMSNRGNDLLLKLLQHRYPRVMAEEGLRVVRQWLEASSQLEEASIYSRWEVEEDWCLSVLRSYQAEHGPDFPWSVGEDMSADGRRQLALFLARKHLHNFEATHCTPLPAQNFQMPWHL
UniProt Q9BTE6: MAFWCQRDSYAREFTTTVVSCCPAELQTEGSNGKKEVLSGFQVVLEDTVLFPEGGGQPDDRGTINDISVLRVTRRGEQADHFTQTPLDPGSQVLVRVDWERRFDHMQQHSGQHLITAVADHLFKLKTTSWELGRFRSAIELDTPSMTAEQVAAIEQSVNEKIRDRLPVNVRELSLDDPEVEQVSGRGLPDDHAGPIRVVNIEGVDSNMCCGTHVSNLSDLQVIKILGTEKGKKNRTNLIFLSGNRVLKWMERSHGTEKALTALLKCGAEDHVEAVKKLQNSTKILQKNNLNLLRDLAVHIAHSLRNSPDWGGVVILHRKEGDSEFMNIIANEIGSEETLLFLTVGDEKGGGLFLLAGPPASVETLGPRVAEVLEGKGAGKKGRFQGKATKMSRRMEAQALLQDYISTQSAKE
UniProt P49588, whole entry, looked up: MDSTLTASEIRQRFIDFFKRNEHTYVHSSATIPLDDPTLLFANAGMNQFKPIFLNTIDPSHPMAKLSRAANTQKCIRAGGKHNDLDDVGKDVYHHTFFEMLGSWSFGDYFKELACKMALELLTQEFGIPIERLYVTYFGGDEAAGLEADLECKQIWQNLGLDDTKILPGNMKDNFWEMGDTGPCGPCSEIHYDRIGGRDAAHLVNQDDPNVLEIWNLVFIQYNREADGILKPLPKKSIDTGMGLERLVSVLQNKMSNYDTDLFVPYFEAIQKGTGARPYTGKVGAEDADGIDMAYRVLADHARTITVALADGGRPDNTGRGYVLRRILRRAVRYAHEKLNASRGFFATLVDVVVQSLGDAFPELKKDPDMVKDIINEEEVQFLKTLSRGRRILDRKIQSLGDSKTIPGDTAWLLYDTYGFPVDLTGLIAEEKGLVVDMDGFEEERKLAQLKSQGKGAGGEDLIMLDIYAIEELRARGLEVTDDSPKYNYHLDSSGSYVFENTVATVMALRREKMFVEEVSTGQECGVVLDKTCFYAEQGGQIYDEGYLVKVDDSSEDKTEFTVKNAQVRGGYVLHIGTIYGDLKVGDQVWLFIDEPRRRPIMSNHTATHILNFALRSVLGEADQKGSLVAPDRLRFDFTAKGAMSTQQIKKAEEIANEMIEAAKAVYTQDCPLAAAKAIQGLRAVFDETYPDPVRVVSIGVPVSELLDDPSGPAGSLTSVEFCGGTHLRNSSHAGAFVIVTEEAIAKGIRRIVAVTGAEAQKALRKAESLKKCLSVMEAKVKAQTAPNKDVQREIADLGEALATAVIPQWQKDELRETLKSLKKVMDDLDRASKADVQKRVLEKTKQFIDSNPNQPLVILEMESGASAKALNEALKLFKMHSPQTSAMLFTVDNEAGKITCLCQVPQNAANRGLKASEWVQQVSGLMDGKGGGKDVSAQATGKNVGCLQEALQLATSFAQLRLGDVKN
UniProt Q8IZP0: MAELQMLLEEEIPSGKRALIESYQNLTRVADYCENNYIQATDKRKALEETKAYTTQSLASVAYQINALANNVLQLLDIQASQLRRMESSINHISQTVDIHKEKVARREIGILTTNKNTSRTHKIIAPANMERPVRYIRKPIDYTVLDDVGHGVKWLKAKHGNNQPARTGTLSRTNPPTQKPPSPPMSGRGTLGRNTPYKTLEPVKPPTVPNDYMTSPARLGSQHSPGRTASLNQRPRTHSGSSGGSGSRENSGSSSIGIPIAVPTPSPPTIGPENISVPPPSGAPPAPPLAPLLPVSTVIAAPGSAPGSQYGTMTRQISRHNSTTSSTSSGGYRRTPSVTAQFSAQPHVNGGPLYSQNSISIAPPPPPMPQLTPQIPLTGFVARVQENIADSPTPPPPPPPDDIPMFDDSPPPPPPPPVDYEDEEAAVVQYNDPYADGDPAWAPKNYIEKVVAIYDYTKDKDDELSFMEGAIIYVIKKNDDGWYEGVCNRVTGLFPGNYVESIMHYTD

Compound: C#Cc1cccc(Nc2ncnc3cc(OCCOC)c(OCCOC)cc23)c1 [erlotinib]
Test: log2 fold change, soluble protein after heating vs DMSO (PISA); higher = thermal stabilisation; K562 lysate, 10 uM; active = over 0.2 and 3.5 SD of the protein, either way, in both replicates (recomputed)
Outline: (§1)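 Quantification was by TMTpro 16plex LC-MS/MS with equalised channel sums, applied to the supernatant after 21,000xg for 90 min. Samples were crude K562 extract at 1 mg/mL protein in PBS pH 7.4 with 1 mM MgCl2, treated with 10 μM compound for 30 min, heated for 3 min across 48°C-58°C, pooled and brought to 0.5% NP-40 at 4°C. Values are log-two fold changes in thermal stability relative to solvent controls, from duplicates.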

Row | Target | log2 fold change
1 | A0A096LPI6, A0A096LPI6 | inactive: -0.052
2 | ABCB10 (UniProt Q9NRK6) | inactive: -0.032
3 | ABHD10 (UniProt Q9NUJ1) | inactive: -0.01
4 | ABHD17A isoform 2 (UniProt Q96GS6) | inactive: -0.016
5 | ABT1 (UniProt Q9ULW3) | inactive: 0
6 | ACO1 (UniProt P21399) | inactive: -0.026
7 | ACADS (UniProt P16219) | inactive: -0.013
8 | ACBD6 (UniProt Q9BR61) | inactive: 0.013
9 | ABCF1 (UniProt Q8NE71) | inactive: -0.001
10 | ABHD16A (UniProt O95870) | inactive: -0.009
11 | AARSD1 isoform 3 (UniProt Q9BTE6) | inactive: -0.012

Compound: C/C(=N\NC(=O)C1=CC(=CC=C1)S(=O)(=O)N2CCOCC2)/C3=C(C=CC(=C3)Cl)O
Test: as above
Outline: as §1

Row | Target | log2 fold change
12 | AAK1, A0A096LP25 | inactive: 0.004
13 | AAMDC (UniProt Q9H7C9) | inactive: 0.064
14 | ACIN1 (UniProt E7EQT4) | inactive: -0.16
15 | ACCS (UniProt Q96QU6) | inactive: -0.489
16 | A0A0B4J2A0, A0A0B4J2A0 | inactive: -0.01
17 | ABL1 isoform 2 (UniProt P00519) | inactive: -0.005
18 | ABITRAM (UniProt Q9NX38) | inactive: -0.227
19 | AACS (UniProt Q86V21) | inactive: -0.106
20 | ABCF2 isoform 2 (UniProt Q9UG63) | inactive: -0.029
21 | ACACA isoform 4 (UniProt Q13085) | inactive: 0.039
22 | ABCB7 isoform 2 (UniProt O75027) | inactive: 0.014
23 | ACADVL isoform 3 (UniProt P49748) | inactive: -0.024
24 | ABCC4 (UniProt O15439) | inactive: -0.017
25 | ABCD3 (UniProt P28288) | active: 0.556
26 | ABRAXAS2 (UniProt Q15018) | inactive: 0.056
27 | ACBD3 (UniProt Q9H3P7) | inactive: -0.013
28 | ACIN1 isoform 5 (UniProt Q9UKV3) | inactive: -0.025

Row | Target | log2 fold change
29 | A2M (UniProt P01023) | inactive: 0.056
30 | AARS (UniProt P49588) | inactive: 0.028
31 | ABI1 isoform 9 (UniProt Q8IZP0) | inactive: -0.003
32 | AATF (UniProt Q9NY61) | inactive: -0.035
33 | AAGAB (UniProt Q6PD74) | inactive: 0.082
34 | A0A096LPI6, A0A096LPI6 | inactive: -0.016
35 | ABCB10 (UniProt Q9NRK6) | inactive: -0.037
36 | ABHD10 (UniProt Q9NUJ1) | inactive: 0.011
37 | ABHD17A isoform 2 (UniProt Q96GS6) | inactive: -0.046
38 | ABT1 (UniProt Q9ULW3) | inactive: -0.154
39 | ACO1 (UniProt P21399) | inactive: 0.004
40 | ACADS (UniProt P16219) | inactive: 0.021
41 | ACBD6 (UniProt Q9BR61) | inactive: -0.059
42 | ABCF1 (UniProt Q8NE71) | inactive: 0.033
43 | ABHD16A (UniProt O95870) | inactive: -0.047
44 | AARSD1 isoform 3 (UniProt Q9BTE6) | inactive: -0.033

Compound: C1=CC(=CC=C1C2=NC3=C(N2)C=C(C=C3)C(=O)N)OC4=CC=C(C=C4)Cl
Test: as above
Outline: as §1

Row | Target | log2 fold change
45 | AAK1, A0A096LP25 | inactive: -0.001
46 | AAMDC (UniProt Q9H7C9) | inactive: -0.03
47 | ACIN1 (UniProt E7EQT4) | inactive: 0
48 | ACCS (UniProt Q96QU6) | inactive: 0.093
49 | A0A0B4J2A0, A0A0B4J2A0 | inactive: 0.033
50 | ABL1 isoform 2 (UniProt P00519) | inactive: -0.013
51 | ABITRAM (UniProt Q9NX38) | inactive: -0.008
52 | AACS (UniProt Q86V21) | inactive: 0.024
53 | ABCF2 isoform 2 (UniProt Q9UG63) | inactive: -0.049
54 | ACACA isoform 4 (UniProt Q13085) | inactive: -0.029
55 | ABCB7 isoform 2 (UniProt O75027) | inactive: 0.074
56 | ACADVL isoform 3 (UniProt P49748) | inactive: 0.026
57 | ABCC4 (UniProt O15439) | inactive: 0.028
58 | ABCD3 (UniProt P28288) | inactive: 0.217
59 | ABRAXAS2 (UniProt Q15018) | inactive: -0.056
60 | ACBD3 (UniProt Q9H3P7) | inactive: 0.031
61 | ACIN1 isoform 5 (UniProt Q9UKV3) | inactive: -0.023

Row | Target | log2 fold change
62 | A2M (UniProt P01023) | inactive: 0.009
63 | AARS (UniProt P49588) | inactive: 0.003
64 | ABI1 isoform 9 (UniProt Q8IZP0) | inactive: 0.025
65 | AATF (UniProt Q9NY61) | inactive: -0.047
66 | AAGAB (UniProt Q6PD74) | inactive: -0.009
67 | A0A096LPI6, A0A096LPI6 | inactive: -0.02
68 | ABCB10 (UniProt Q9NRK6) | inactive: -0.11
69 | ABHD10 (UniProt Q9NUJ1) | inactive: 0.006
70 | ABHD17A isoform 2 (UniProt Q96GS6) | inactive: 0.081
71 | ABT1 (UniProt Q9ULW3) | inactive: 0.049
72 | ACO1 (UniProt P21399) | inactive: -0.015
73 | ACADS (UniProt P16219) | inactive: -0.013
74 | ACBD6 (UniProt Q9BR61) | inactive: 0.029
75 | ABCF1 (UniProt Q8NE71) | inactive: -0.013
76 | ABHD16A (UniProt O95870) | inactive: 0.03
77 | AARSD1 isoform 3 (UniProt Q9BTE6) | inactive: -0.049
